Results from the supplement of paper PMC10849652.
The other results are listed elsewhere or left out.

Amino acid sequences for entries named in this document (tags omitted). A change or cut given only in a name is not applied to a line headed by its entry.
UniProt Q01085: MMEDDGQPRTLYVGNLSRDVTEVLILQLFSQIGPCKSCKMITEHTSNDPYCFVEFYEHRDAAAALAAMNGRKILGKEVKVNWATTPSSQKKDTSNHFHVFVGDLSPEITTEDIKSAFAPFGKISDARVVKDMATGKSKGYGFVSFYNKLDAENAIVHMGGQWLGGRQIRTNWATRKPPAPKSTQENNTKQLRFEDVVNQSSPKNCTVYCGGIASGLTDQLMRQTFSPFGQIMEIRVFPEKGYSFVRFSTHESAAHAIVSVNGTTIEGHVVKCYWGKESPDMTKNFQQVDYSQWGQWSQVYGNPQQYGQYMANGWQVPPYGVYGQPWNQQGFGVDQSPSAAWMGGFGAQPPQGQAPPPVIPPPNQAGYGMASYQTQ
UniProt Q04726: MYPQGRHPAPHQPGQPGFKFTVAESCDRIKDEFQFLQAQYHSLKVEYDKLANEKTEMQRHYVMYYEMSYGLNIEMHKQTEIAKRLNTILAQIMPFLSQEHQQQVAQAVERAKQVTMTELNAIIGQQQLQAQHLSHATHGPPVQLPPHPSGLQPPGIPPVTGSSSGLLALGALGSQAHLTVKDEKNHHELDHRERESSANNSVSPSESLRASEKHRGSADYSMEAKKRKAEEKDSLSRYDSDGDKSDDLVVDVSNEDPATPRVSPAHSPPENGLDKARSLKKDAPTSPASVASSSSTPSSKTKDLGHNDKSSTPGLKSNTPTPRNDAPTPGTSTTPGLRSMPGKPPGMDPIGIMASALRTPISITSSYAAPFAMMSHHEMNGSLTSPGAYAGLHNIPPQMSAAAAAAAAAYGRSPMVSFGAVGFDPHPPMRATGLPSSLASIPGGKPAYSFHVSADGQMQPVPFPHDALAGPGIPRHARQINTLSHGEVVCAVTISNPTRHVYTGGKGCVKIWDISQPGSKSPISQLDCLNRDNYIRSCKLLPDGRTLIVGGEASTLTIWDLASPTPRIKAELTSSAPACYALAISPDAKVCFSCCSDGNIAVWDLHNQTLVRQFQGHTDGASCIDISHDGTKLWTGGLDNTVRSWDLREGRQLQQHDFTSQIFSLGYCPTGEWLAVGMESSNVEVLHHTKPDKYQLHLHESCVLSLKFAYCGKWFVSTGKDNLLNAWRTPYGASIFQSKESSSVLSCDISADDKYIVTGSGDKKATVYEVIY
UniProt P21980: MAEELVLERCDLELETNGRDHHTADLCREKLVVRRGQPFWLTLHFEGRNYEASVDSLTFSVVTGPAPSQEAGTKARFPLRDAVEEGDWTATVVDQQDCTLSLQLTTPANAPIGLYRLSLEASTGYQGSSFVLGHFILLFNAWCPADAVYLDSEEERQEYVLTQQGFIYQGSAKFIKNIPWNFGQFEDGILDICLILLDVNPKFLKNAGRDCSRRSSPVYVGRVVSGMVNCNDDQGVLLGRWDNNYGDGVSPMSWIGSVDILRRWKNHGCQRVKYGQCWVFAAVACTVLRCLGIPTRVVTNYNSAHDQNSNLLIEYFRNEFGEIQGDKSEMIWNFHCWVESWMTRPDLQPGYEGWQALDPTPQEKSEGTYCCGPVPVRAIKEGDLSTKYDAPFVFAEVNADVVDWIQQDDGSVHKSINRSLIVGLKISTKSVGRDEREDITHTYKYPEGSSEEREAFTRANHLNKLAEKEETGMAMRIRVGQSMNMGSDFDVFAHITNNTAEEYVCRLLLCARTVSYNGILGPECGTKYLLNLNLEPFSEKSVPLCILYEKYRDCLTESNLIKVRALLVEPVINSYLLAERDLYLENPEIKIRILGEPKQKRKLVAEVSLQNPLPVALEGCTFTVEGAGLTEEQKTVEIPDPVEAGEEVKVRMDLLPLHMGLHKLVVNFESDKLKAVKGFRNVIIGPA
UniProt O95551: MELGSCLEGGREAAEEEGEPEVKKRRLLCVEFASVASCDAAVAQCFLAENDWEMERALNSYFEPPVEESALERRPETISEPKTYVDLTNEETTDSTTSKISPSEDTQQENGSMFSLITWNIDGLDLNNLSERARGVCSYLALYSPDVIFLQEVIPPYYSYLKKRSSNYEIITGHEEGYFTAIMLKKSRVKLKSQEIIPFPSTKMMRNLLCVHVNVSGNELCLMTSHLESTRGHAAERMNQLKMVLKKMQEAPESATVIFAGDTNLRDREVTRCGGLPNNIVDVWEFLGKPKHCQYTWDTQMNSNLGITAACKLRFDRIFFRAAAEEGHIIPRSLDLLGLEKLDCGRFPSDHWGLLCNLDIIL
UniProt Q9NZ01: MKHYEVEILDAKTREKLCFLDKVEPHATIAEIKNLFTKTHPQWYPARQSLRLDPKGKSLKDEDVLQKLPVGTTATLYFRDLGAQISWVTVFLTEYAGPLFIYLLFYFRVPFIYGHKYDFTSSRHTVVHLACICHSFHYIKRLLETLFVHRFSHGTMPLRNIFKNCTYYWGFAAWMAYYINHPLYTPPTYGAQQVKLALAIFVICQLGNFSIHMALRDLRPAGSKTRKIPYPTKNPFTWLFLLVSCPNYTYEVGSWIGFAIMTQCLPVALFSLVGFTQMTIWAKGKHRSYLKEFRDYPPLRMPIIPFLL
UniProt Q9Y584: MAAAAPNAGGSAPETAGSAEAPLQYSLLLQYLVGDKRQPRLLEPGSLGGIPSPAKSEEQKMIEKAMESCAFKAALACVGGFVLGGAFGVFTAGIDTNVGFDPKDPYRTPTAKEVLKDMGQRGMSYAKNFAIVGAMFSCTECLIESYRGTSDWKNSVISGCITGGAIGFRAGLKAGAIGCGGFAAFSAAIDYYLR
UniProt Q9Y5L4: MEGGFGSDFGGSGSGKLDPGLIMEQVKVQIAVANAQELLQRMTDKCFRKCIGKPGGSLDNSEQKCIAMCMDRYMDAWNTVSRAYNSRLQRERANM
UniProt O60907: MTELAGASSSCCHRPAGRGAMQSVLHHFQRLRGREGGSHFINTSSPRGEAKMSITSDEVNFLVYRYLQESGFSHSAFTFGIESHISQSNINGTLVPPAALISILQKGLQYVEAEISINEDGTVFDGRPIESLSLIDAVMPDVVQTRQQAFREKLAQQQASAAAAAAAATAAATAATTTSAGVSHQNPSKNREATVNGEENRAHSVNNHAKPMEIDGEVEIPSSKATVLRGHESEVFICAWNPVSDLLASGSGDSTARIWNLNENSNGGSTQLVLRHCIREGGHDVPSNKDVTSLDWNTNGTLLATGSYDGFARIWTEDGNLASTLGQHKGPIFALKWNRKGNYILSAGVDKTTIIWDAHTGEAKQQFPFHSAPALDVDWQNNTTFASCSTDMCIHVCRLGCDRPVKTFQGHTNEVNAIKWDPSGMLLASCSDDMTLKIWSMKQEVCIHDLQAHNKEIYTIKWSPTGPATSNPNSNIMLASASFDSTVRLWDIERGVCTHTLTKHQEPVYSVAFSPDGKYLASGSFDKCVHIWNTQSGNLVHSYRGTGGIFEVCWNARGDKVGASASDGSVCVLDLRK
UniProt P02787, whole entry, looked up: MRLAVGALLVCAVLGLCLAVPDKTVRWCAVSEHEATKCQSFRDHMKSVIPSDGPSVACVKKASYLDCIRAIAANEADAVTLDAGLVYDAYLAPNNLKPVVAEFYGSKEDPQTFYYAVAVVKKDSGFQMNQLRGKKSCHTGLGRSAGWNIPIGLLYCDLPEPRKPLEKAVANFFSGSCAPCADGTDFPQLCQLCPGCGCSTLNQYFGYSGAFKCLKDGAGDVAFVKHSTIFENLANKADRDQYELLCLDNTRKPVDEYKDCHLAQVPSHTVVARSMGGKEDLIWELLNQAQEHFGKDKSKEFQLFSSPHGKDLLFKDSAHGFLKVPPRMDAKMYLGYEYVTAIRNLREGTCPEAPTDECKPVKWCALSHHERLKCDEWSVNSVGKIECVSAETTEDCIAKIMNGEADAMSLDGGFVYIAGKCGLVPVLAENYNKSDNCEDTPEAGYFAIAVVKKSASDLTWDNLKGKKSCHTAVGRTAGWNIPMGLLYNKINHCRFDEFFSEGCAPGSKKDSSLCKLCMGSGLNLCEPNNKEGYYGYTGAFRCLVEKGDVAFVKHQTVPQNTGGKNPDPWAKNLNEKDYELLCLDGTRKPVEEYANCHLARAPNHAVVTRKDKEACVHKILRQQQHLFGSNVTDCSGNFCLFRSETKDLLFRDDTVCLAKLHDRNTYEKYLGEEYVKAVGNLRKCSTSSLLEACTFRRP
UniProt Q13769: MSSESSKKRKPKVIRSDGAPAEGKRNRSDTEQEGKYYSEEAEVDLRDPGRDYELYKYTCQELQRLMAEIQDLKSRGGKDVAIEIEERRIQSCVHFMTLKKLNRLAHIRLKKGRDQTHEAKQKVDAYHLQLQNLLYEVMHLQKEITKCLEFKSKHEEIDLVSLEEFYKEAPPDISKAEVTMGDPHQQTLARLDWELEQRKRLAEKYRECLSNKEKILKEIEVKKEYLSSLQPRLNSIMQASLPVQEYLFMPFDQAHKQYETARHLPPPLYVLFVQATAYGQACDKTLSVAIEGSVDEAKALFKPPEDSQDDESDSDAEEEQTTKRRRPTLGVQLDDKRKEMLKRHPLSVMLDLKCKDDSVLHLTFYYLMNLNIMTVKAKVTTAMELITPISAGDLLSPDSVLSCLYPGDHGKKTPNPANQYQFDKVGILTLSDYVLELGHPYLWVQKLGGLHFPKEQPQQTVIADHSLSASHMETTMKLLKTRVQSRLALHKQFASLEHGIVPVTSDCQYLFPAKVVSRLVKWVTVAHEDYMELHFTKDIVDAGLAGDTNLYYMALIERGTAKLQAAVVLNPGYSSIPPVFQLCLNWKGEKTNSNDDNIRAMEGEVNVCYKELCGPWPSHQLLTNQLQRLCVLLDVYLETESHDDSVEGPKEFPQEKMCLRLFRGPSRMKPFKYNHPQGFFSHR
UniProt Q8TC07: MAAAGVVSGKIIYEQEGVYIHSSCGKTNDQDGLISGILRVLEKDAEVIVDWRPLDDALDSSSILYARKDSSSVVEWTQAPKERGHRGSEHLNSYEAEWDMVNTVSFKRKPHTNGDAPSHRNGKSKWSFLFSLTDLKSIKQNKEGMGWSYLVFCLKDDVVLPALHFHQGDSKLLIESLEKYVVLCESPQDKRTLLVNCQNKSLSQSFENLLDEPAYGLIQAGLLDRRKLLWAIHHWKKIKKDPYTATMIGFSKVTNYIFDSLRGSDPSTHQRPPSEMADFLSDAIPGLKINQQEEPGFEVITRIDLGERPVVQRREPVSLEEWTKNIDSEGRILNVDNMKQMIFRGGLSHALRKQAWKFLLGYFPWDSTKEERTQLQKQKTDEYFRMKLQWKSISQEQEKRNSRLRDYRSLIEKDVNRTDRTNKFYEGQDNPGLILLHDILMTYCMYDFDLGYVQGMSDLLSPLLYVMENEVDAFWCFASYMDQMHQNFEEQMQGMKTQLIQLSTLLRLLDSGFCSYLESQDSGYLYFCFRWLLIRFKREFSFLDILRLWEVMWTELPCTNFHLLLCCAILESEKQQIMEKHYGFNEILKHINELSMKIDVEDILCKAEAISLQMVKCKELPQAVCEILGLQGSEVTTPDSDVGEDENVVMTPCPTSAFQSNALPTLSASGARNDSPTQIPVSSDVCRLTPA
UniProt O14776: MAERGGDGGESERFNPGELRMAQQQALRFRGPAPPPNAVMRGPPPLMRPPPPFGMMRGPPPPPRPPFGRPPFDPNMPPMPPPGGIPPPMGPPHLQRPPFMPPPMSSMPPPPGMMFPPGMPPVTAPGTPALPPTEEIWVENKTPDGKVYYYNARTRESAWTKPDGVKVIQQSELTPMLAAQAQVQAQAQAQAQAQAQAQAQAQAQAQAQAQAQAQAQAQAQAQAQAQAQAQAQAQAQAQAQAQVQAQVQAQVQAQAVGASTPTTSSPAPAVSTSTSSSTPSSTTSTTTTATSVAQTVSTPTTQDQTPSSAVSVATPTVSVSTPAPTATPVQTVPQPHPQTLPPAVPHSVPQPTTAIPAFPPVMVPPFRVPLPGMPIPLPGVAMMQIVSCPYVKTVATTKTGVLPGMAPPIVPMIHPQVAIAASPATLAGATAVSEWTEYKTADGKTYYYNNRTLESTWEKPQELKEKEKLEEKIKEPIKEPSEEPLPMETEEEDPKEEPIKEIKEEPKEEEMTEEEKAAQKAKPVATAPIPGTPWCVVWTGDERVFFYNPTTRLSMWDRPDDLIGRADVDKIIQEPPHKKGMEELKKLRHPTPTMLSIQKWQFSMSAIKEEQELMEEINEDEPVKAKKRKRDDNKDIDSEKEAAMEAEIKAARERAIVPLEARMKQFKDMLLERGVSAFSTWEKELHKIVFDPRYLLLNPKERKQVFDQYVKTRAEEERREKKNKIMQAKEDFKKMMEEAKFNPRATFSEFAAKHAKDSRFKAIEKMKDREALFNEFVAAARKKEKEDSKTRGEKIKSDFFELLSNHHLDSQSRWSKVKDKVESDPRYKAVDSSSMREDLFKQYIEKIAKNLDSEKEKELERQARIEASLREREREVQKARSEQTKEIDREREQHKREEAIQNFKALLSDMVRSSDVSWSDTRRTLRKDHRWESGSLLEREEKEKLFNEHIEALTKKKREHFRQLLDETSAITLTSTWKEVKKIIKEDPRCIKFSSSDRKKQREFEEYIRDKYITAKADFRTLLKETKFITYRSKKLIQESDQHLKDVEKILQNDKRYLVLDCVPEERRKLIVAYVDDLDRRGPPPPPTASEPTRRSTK

Compound: C[C@@H]1COCCN1C2=NC(=NC(=C2)C3(CC3)S(=O)(=O)C)C4=C5C=CNC5=CC=C4
Experiment: log2 fold change, soluble protein after heating vs DMSO (PISA); higher = thermal stabilisation; K562 cells, 10 uM, 30 min; active = over 0.2 and 3.5 SD of the protein, either way, in both replicates (recomputed)
Method in brief: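 Soluble protein was quantified by TMTpro 16plex LC-MS/MS after channel sums were equalised. It was obtained as the supernatant after 21,000xg for 90 min from pooled aliquots of K562 cells (2×10^6 cells/mL, 10 μM compound, 30 min) heated for 3 min across 48°C-58°C and extracted in PBS with 0.5% NP-40 at 4°C. Thermal stability values are relative to control samples and come from duplicates. They are given as log2 fold changes.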

log2 fold change, inactive:
TIAL1 isoform 2 (UniProt Q01085) 0.023
TLE3 isoform 4 (UniProt Q04726) -0.03
TGM2 (UniProt P21980) 0.059
TGFB1 (UniProt P01137) 0.005
TDP2 isoform 2 (UniProt O95551) -0.078
TECR (UniProt Q9NZ01) 0.054
TIMM22 (UniProt Q9Y584) 0.067
THBS4 (UniProt P35443) 0.079
TERF2 (UniProt Q15554) 0.255
TICAM2 isoform 2 (UniProt Q86XR7) 0.013
TIMM13 (UniProt Q9Y5L4) 0.151
TBL1X (UniProt O60907) 0.139
TF (UniProt P02787) 0.014
THOC5 (UniProt Q13769) 0.075
TBC1D15 isoform 3 (UniProt Q8TC07) -0.032
TESC (UniProt Q96BS2) 0.153
TCERG1 (UniProt O14776) 0.125

2 successive records from above:
log2 fold change, inactive:
TBL1X (UniProt O60907) 0.139
TF (UniProt P02787) 0.014
